Data taken from the supplement of paper PMC10849652.
The other results are listed elsewhere or left out.

Protein sequences, listed by entry. Tags and fused reporters are not part of them. Lines headed by an entry give the natural chain unless they say otherwise; changes in a name come on top.
UniProt Q96NC0: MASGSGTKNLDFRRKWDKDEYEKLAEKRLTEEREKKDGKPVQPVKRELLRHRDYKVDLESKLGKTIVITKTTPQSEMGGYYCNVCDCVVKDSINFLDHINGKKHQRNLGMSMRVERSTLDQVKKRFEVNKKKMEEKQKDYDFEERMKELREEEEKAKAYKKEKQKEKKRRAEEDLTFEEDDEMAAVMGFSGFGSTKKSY
UniProt Q9BSR8: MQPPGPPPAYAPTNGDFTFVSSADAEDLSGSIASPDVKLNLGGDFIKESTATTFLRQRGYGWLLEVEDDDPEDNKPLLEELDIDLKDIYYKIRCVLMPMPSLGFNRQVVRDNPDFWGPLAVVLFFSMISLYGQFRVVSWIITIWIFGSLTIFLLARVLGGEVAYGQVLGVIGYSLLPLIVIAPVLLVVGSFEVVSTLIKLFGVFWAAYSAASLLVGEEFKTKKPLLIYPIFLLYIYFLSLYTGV
UniProt Q5W0Z9: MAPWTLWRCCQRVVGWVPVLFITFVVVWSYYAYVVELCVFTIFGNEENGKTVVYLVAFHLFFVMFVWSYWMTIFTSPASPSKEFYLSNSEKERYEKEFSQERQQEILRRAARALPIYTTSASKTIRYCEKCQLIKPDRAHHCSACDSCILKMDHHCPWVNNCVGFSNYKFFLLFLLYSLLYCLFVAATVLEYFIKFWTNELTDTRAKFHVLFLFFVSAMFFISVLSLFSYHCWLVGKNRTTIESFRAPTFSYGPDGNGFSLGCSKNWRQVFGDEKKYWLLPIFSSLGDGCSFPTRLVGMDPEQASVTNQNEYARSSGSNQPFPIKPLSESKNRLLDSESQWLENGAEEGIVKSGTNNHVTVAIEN
UniProt Q9Y5A9: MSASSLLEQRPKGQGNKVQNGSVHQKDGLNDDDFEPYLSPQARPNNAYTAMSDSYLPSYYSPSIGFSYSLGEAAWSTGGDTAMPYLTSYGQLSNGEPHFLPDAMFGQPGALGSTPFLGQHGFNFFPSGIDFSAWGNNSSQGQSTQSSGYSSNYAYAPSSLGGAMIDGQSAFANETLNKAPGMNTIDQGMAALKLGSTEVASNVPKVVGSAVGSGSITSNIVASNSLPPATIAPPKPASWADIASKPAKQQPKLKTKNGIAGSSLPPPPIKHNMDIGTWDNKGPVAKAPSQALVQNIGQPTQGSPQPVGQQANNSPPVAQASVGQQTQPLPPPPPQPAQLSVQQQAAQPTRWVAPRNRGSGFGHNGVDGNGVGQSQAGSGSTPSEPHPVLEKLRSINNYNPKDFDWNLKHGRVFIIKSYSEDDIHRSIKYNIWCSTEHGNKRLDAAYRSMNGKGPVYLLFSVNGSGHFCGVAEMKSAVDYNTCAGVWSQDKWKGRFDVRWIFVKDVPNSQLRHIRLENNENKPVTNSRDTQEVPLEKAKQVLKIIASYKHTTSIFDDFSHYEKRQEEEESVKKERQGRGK
UniProt Q6NZY4: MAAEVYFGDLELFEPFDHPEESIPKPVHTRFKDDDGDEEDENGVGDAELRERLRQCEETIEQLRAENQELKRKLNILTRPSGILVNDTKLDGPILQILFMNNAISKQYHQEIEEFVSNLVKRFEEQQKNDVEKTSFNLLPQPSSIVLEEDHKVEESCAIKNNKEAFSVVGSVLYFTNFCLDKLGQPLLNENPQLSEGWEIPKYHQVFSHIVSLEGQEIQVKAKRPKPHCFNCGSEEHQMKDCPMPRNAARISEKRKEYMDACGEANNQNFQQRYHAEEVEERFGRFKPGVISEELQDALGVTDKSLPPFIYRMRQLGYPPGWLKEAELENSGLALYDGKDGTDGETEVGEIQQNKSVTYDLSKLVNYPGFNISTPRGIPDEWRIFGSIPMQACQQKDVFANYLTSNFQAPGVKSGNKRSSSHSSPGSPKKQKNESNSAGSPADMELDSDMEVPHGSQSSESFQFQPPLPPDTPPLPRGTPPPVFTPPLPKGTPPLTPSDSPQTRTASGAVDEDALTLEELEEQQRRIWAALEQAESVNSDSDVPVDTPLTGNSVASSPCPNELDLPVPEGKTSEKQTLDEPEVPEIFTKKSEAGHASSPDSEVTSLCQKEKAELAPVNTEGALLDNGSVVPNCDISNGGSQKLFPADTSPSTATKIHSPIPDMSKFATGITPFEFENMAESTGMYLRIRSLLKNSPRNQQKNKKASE
UniProt O43542: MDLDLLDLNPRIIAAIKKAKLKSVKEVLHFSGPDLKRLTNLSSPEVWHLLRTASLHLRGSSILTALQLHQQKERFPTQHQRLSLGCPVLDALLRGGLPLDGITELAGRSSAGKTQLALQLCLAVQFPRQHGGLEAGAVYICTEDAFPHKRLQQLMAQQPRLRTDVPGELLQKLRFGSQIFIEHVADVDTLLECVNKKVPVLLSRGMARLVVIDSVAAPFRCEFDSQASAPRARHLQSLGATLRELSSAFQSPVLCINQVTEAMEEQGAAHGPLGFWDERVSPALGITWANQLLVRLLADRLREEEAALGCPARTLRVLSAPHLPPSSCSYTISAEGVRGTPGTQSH
UniProt Q9ULJ6: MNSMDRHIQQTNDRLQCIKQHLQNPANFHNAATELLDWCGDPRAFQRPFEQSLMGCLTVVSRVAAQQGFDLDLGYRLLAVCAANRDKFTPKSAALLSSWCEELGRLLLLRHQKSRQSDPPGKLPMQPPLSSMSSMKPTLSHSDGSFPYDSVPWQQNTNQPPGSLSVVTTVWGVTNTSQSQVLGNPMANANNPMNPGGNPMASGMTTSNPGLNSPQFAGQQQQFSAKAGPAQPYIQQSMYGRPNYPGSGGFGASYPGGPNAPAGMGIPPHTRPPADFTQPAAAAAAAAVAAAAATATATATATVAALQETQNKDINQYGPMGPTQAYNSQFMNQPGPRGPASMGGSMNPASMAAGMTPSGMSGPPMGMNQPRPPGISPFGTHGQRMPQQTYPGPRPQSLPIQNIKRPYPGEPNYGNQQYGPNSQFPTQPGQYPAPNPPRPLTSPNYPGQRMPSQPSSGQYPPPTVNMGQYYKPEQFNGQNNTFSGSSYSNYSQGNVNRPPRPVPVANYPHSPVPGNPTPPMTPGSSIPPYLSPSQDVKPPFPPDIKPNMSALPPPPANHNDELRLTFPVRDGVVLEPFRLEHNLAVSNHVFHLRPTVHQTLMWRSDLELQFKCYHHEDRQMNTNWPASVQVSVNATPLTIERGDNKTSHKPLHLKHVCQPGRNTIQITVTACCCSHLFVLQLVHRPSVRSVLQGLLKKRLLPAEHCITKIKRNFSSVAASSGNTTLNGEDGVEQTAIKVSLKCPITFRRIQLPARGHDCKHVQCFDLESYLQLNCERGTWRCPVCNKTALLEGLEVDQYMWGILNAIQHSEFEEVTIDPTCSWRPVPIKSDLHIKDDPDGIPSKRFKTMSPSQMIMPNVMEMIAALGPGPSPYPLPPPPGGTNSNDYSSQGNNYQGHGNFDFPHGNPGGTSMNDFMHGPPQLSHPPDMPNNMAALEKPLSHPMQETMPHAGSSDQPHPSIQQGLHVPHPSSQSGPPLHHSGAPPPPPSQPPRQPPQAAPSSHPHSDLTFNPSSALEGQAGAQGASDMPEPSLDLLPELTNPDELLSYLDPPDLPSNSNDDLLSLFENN
UniProt Q8NF64: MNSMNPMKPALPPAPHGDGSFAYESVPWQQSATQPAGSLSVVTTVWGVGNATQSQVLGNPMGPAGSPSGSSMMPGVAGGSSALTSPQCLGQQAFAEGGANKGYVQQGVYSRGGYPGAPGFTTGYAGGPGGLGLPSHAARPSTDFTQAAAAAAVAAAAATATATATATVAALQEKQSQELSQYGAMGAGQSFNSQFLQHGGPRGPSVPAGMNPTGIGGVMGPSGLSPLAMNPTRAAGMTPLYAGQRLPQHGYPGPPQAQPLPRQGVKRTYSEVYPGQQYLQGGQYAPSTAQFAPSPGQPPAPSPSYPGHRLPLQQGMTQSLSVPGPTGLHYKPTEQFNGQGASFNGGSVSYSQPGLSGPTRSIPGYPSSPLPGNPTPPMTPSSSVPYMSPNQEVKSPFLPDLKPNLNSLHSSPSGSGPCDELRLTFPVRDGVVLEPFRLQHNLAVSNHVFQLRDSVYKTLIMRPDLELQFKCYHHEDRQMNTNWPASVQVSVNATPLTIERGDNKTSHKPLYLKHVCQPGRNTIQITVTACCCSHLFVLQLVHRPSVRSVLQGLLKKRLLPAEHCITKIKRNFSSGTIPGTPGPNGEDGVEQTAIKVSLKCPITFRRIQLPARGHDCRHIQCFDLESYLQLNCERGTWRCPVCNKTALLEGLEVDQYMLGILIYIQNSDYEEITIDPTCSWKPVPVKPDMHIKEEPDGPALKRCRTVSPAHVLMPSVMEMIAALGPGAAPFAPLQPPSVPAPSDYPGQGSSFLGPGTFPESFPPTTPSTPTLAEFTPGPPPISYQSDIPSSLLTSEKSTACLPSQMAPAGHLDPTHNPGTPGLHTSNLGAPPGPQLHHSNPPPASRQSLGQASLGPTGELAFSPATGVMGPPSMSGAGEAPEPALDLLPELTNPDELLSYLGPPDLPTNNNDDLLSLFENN
UniProt Q7Z739: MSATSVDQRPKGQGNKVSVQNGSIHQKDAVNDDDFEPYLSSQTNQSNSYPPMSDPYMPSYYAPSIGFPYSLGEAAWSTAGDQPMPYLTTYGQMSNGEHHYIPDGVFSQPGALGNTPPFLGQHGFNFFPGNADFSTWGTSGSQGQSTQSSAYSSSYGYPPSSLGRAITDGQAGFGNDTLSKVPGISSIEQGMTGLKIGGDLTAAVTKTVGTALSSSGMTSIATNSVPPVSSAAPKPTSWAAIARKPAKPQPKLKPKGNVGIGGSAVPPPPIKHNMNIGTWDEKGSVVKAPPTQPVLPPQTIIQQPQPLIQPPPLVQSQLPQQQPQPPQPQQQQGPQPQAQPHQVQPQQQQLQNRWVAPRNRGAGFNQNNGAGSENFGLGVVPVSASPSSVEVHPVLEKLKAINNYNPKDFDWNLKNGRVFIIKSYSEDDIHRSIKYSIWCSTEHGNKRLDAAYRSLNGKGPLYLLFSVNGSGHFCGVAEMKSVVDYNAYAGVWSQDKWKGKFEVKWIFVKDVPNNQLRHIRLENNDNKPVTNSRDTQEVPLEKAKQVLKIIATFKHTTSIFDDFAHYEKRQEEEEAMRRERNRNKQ
UniProt Q9Y2Z4: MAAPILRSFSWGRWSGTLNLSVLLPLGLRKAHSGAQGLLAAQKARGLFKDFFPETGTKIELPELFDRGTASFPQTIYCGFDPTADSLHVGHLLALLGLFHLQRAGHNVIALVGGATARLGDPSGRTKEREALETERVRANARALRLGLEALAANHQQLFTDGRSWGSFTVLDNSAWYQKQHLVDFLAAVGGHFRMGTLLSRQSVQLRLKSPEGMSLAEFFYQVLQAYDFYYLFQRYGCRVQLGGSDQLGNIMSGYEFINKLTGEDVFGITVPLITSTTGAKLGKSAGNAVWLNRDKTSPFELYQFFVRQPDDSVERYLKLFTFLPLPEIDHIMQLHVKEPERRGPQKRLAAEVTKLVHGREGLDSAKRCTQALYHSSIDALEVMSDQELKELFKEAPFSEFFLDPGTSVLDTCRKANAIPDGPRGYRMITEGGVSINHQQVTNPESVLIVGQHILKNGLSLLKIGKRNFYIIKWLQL
UniProt Q9BW85: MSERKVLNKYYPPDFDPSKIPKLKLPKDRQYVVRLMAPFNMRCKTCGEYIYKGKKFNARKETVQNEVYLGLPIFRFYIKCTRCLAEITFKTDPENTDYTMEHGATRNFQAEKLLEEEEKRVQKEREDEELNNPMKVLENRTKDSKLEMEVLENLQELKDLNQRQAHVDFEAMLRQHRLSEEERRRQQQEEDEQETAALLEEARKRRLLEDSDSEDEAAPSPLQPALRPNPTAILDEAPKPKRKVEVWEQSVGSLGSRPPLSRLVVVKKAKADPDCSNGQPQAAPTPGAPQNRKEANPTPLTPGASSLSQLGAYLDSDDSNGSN
UniProt Q96TA2: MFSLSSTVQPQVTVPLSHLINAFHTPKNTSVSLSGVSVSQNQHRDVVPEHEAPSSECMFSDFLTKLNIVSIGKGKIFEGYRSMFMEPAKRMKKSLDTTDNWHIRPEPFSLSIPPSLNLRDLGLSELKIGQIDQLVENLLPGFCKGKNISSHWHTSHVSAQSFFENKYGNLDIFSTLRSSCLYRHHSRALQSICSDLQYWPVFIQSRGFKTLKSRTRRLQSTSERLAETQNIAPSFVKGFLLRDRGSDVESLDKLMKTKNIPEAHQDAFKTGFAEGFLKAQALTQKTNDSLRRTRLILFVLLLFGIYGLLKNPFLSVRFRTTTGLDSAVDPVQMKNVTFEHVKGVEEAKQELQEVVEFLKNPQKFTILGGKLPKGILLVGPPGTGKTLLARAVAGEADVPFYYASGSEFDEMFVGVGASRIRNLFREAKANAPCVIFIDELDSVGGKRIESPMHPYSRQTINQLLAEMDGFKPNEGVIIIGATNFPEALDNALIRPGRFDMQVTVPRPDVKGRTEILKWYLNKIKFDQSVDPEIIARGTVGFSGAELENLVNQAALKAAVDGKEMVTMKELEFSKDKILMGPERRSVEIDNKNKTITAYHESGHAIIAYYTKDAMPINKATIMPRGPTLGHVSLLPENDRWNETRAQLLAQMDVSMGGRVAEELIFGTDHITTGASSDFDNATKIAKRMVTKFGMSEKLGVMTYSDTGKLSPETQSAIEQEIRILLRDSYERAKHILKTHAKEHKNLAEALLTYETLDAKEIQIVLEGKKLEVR

How the values were obtained:
Assay in all cases: log2 fold change, soluble protein after heating vs DMSO (PISA); higher = thermal stabilisation; K562 cells, 10 uM, 30 min; active = over 0.2 and 3.5 SD of the protein, either way, in both replicates (recomputed)
[1] = compound: NC(=O)Nc1cc(-c2cccc(F)c2)sc1C(=O)N[C@H]1CCCNC1
In short: (§1)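 K562 cells at 2×10^6 cells/mL were treated for 30 min with 10 μM compound, and aliquots were heated for 3 min over 48°C-58°C before pooling. Extraction used PBS with 0.5% NP-40 at 4°C, and soluble protein was the supernatant after 21,000xg for 90 min, measured by TMTpro 16plex LC-MS/MS with channel sums equalised. Thermal stability values, relative to control samples and from duplicates, are log2 fold changes.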

[2] = compound: NC(=O)c1cnc(N[C@@H]2CCCC[C@@H]2N)nc1Nc1cccc(-n2nccn2)c1
In short: as §1

[3] = compound: NC1(c2ccc(-c3nc4ccn5c(=O)[nH]nc5c4cc3-c3ccccc3)cc2)CCC1
In short: as §1

[4] = compound: NCC(=O)Nc1ccc(-n2nc(C(F)(F)F)cc2-c2ccc3c(ccc4ccccc43)c2)cc1
In short: as §1

[5] = compound: Nc1ccccc1NC(=O)c1ccc(CNC(=O)OCc2cccnc2)cc1 [entinostat]
In short: as §1

[6] = compound: O=C(CCCCCCC(=O)Nc1ccccc1)NO [vorinostat]
In short: as §1

[7] = compound: O=C(CCCCCCNC(=O)c1cnc(N(c2ccccc2)c2ccccc2Cl)nc1)NO [citarinostat]
In short: as §1

[8] = compound: O=C(O)c1ccc2c(c1)nc(Nc1cccc(Cl)c1)c1ccncc12 [silmitasertib]
In short: as §1

[9] = compound: O=C1NC(=O)C(c2cnc3ccccn23)=C1c1cn2c3c(cc(F)cc13)CN(C(=O)N1CCCCC1)CC2
In short: as §1

[10] = compound: c1cc(OCCN2CCCCC2)cc(-c2n[nH]c3ccc(-c4nnc[nH]4)cc23)c1
In short: as §1

[11] = compound: c1cn2cc(-c3ccc4cn[nH]c4c3)nc(Nc3ccc(N4CCOCC4)cc3)c2n1 [entospletinib]
In short: as §1

Measured: log2 fold change

XPNPEP3 (UniProt Q9NQH7)
inactive: [1] 0.034 | [2] -0.007 | [3] -0.074 | [4] 0 | [5] -0.024 | [6] -0.002 | [7] -0.007 | [8] -0.004 | [9] -0.02 | [10] -0.022

ZDHHC5 (UniProt Q9C0B5)
inactive: [1] -0.081 | [2] -0.01 | [3] -0.027 | [4] -0.005 | [5] -0.034 | [6] -0.02 | [7] -0.022 | [8] 0.101 | [9] -0.014 | [10] -0.076

ZMAT2 (UniProt Q96NC0)
inactive: [2] 0.079 | [3] 0.043 | [4] 0.016 | [5] 0.081 | [6] -0.019 | [7] 0.085 | [8] 0.028 | [9] 0.012 | [10] 0.035
active: [1] 0.282

YAE1 (UniProt Q9NRH1)
inactive: [1] -0.023 | [2] -0.038 | [3] 0.086 | [4] -0.011 | [5] 0.011 | [6] 0.044 | [7] 0.04 | [8] -0.009 | [9] -0.02 | [10] -0.001

ZFPL1 (UniProt O95159)
inactive: [1] -0.04 | [2] 0.054 | [3] 0.058 | [4] 0.027 | [5] -0.03 | [6] -0.053 | [7] 0.046 | [8] 0.003 | [9] -0.003 | [10] 0.008

YIPF4 (UniProt Q9BSR8)
inactive: [1] 0.066 | [2] 0.091 | [3] -0.01 | [4] -0.004 | [5] -0.04 | [6] -0.046 | [7] 0.042 | [8] -0.006 | [9] -0.087 | [10] -0.051

YBX1 (UniProt P67809)
inactive: [1] 0.025 | [2] 0.048 | [3] 0.306 | [4] 0.055 | [5] -0.073 | [6] -0.056 | [7] -0.13 | [8] 0.125 | [9] 0.126 | [10] -0.156

ZDHHC20 (UniProt Q5W0Z9)
inactive: [1] -0.219 | [2] -0.001 | [3] -0.027 | [4] 0.093 | [5] 0.045 | [6] -0.021 | [7] -0.028 | [8] 0.08 | [9] 0.079 | [10] 0.053

ZFAND2B (UniProt Q8WV99)
inactive: [1] -0.035 | [2] 0.014 | [3] -0.041 | [4] 0.032 | [5] -0.043 | [6] 0.041 | [7] 0.065 | [8] 0.06 | [9] 0.008 | [10] -0.065 | [11] -0.098

YTHDF2 (UniProt Q9Y5A9)
inactive: [1] -0.057 | [2] -0.006 | [3] -0.003 | [4] 0.078 | [5] 0.002 | [6] 0.022 | [7] -0.015 | [8] 0.034 | [9] -0.007 | [10] -0.05 | [11] 0.035

ZCCHC8 (UniProt Q6NZY4)
inactive: [1] 0.045 | [2] -0.033 | [3] 0.008 | [4] -0.073 | [5] 0.016 | [6] 0.012 | [7] 0.003 | [8] -0.019 | [9] 0.026 | [10] -0.041 | [11] 0.011

YWHAE (UniProt P62258)
inactive: [1] 0.031 | [2] 0.009 | [3] 0.024 | [4] 0.018 | [5] -0.008 | [6] -0.03 | [7] 0.028 | [8] -0.025 | [9] -0.017 | [10] 0.001 | [11] 0.004

XRCC3 (UniProt O43542)
inactive: [1] -0.022 | [2] -0.015 | [3] -0.001 | [4] 0.122 | [5] 0.199 | [6] 0.033 | [7] 0.014 | [8] -0.021 | [9] -0.063 | [10] -0.004 | [11] -0.156

ZMIZ1 (UniProt Q9ULJ6)
inactive: [1] 0.001 | [2] -0.029 | [3] -0.081 | [4] -0.025 | [5] 0.028 | [6] 0.017 | [7] 0.027 | [8] -0.015 | [9] 0.02 | [10] -0.016 | [11] -0.069

ZCCHC3 (UniProt Q9NUD5)
inactive: [1] 0.022 | [2] 0.06 | [3] 0.169 | [4] 0.058 | [5] -0.028 | [6] -0.034 | [7] -0.102 | [8] 0.111 | [9] 0.136 | [10] -0.18 | [11] 0.15

ZMIZ2 (UniProt Q8NF64)
inactive: [1] -0.035 | [2] -0.061 | [3] 0.011 | [4] 0.031 | [5] -0.087 | [6] -0.21 | [7] 0.053 | [8] 0.094 | [9] 0.03 | [10] -0.088 | [11] 0.019

ZC3H4 (UniProt Q9UPT8)
inactive: [1] 0.009 | [2] 0.076 | [3] 0.21 | [4] 0.11 | [5] -0.072 | [6] -0.034 | [7] -0.032 | [8] 0.039 | [9] 0.092 | [10] -0.12 | [11] 0.094

ZC3H15 (UniProt Q8WU90)
inactive: [1] -0.058 | [2] 0.019 | [3] 0.081 | [4] 0.031 | [5] -0.053 | [6] -0.018 | [7] -0.033 | [8] 0.005 | [9] 0.016 | [10] -0.059 | [11] 0.027

YWHAG (UniProt P61981)
inactive: [1] 0.029 | [2] 0.086 | [3] 0.033 | [4] 0.16 | [5] 0.001 | [6] 0.014 | [7] 0 | [8] -0.097 | [9] -0.049 | [10] 0.11 | [11] 0.001

ZNF207 isoform 4 (UniProt O43670)
inactive: [1] 0.066 | [2] -0.012 | [3] 0.047 | [4] -0.003 | [5] 0.006 | [6] 0.028 | [7] 0.057 | [8] 0.019 | [9] 0.049 | [10] -0.039 | [11] -0.045

ZNF24 (UniProt P17028)
inactive: [1] 0.041 | [2] -0.047 | [3] 0.123 | [4] -0.025 | [5] -0.091 | [6] 0.071 | [7] -0.091 | [8] 0.076 | [9] 0.068 | [10] -0.092 | [11] 0.072

ZDHHC3 isoform 2 (UniProt Q9NYG2)
inactive: [1] -0.11 | [2] -0.089 | [3] -0.069 | [4] -0.052 | [5] 0.03 | [6] 0.118 | [7] 0.047 | [8] 0.048 | [9] -0.105 | [10] -0.007 | [11] -0.021

YTHDF3 (UniProt Q7Z739)
inactive: [1] -0.01 | [2] -0.032 | [3] -0.002 | [4] -0.034 | [5] 0.006 | [6] 0.072 | [7] -0.016 | [8] -0.005 | [9] -0.008 | [10] -0.034 | [11] 0.027

YARS2 (UniProt Q9Y2Z4)
inactive: [1] -0.196 | [2] -0.058 | [3] 0.223 | [4] -0.189 | [5] -0.001 | [6] -0.064 | [7] 0.096 | [8] -0.019 | [9] -0.224 | [10] -0.036 | [11] 0.024

YWHAH (UniProt Q04917)
inactive: [1] -0.045 | [2] -0.003 | [3] -0.045 | [4] -0.017 | [5] 0.018 | [6] 0 | [7] 0.032 | [8] -0.037 | [9] -0.058 | [10] 0.006 | [11] 0.003

YJU2 (UniProt Q9BW85)
inactive: [1] -0.004 | [2] 0.049 | [3] 0.026 | [4] -0.043 | [5] -0.034 | [6] -0.024 | [7] 0.074 | [8] 0.087 | [9] -0.153 | [10] -0.005 | [11] -0.034

ZFYVE1 (UniProt Q9HBF4)
inactive: [1] -0.069 | [2] 0.108 | [3] -0.038 | [4] -0.078 | [5] 0.059 | [6] -0.094 | [7] 0.055 | [8] -0.1 | [9] 0.06 | [10] 0.035 | [11] -0.063

YME1L1 (UniProt Q96TA2)
inactive: [1] -0.012 | [2] -0.024 | [3] -0.044 | [4] -0.045 | [5] -0.001 | [6] 0.031 | [7] 0.016 | [8] 0.022 | [9] 0.037 | [10] -0.063 | [11] -0.048
